Measured values: patent US5102871A, “Nutrient composition” (Kyowa Hakko Kogyo Co., Ltd., priority 1989, dated 1992)
At least one structure is not confirmed: it was looked up by name or label, or the drawing left a doubt. Bridge positions count the residues as written; N and C are the ends. Peptide text beside a SMILES is read from it. I, II: the chains in the order shown.

Amino acid sequences for entries named in this document (tags omitted). Residues count along the entry.
UniProt P20735, 1-379 limits assumed: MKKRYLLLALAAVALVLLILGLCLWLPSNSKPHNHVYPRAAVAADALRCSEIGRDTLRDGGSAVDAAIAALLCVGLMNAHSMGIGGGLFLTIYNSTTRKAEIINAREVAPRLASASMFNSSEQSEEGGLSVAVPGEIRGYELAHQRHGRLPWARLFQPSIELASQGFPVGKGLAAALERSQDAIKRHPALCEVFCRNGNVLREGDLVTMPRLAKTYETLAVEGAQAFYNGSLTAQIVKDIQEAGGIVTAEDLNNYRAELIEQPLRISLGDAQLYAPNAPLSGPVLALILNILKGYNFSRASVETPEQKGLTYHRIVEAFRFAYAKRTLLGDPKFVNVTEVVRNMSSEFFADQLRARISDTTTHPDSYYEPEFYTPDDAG
UniProt P20735, 380-568 limits assumed: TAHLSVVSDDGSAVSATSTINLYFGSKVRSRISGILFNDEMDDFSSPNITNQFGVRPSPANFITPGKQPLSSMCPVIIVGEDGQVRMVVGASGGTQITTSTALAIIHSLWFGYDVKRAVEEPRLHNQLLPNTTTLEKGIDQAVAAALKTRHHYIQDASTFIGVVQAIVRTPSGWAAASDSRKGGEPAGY

Experiments:
[1] = target: T1, γ-glutamyltransferase prepared from swine kidney (Sus scrofa, UniProt P20735); assay: Hydrolysis by γ-glutamyltransferase; type: biochemical; conditions: 5 mM peptide, Tris-hydrochloride buffer pH 7, 37° C., 120 minutes
T1 construct: γ-glutamyltransferase prepared from swine kidney; from tissue; host or cells: swine kidney
Protocol: It was thus recognized that there was a difference between these peptides with respect to utilization in vivo.
A peptide was dissolved in Tris-hydrochloride buffer solution (pH 7) in a concentration of 5 mM and γ-glutamyltransferase prepared from swine kidney was added to the solution. After reaction at 37° C. for 120 minutes, the amount of the remaining peptide was determined.

[2] = Stability in solution on heat treatment and on standing; type: physicochemical; conditions: 10 mM
[3] = administered subcutaneously to mice; Anderson and Meister 1983; cited from earlier work

Compound: NCC(=O)N[C@@H](CSSC[C@H](NC(=O)CN)C(=O)O)C(=O)O [(Gly-Cys)2, bis-glycyl-L-cystine] (I: H-Gly-Cys-OH / II: H-Gly-Cys-OH; disulfide I:2-II:2)
- Hydrolysis by γ-glutamyltransferase [1]: not hydrolyzed

Compound: N[C@@H](CCC(=O)N[C@@H](CSSC[C@H](N)C(=O)O)C(=O)O)C(=O)O [γ-Glu-Cys-Cys]
- Hydrolysis by γ-glutamyltransferase [1]: almost completely hydrolyzed
- Decomposition on standing ([2]; pH 6.5, 40° C. for 60 days): not decomposed
- Decomposition by heat treatment ([2]; pH 6.5, 110° C. for 20 minutes): hardly decomposed
- Utilization in the synthesis of kidney glutathione [3]: can be utilized in the synthesis of kidney glutathione
